Our source for the log2 fold change values is the supplement of paper PMC10849652.

The chains behind the UniProt entries cited, without tags or fusion partners. Where a name states a change or a piece, a line headed by the entry shows the natural chain unless it says otherwise.
UniProt Q8N6C5: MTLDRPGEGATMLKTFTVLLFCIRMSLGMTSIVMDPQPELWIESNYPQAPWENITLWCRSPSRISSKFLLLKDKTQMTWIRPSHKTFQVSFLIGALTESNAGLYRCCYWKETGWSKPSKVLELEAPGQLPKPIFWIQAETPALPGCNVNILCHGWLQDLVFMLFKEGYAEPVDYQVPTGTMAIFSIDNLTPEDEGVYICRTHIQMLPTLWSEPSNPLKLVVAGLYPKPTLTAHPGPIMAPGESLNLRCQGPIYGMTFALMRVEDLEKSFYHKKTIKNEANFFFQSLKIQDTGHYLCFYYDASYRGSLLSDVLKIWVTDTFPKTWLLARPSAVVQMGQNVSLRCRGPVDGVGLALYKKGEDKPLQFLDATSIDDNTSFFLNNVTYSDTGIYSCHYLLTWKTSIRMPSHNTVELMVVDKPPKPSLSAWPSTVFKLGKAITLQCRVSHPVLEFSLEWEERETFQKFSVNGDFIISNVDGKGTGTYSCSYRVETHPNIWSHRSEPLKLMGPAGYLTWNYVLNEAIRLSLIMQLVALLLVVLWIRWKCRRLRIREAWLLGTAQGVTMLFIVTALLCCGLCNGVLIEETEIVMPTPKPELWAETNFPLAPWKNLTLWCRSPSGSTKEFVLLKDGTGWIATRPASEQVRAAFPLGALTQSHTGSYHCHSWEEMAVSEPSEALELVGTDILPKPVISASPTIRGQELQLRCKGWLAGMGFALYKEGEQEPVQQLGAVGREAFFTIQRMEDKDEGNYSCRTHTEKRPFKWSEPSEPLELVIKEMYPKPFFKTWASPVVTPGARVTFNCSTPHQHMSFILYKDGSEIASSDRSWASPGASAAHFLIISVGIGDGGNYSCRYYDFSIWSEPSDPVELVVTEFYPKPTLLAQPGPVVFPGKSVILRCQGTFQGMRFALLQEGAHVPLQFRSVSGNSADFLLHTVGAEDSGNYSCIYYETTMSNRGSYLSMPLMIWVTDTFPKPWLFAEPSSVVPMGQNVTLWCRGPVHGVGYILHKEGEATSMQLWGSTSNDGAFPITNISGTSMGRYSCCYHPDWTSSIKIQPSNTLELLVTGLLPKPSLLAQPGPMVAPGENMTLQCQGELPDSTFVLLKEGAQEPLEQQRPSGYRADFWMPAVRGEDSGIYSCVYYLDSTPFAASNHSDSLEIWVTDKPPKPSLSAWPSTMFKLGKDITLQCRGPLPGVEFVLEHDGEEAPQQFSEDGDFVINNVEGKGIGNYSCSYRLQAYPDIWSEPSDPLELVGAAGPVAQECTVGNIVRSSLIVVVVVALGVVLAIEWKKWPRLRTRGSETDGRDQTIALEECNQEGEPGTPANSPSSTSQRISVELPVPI
UniProt Q14642: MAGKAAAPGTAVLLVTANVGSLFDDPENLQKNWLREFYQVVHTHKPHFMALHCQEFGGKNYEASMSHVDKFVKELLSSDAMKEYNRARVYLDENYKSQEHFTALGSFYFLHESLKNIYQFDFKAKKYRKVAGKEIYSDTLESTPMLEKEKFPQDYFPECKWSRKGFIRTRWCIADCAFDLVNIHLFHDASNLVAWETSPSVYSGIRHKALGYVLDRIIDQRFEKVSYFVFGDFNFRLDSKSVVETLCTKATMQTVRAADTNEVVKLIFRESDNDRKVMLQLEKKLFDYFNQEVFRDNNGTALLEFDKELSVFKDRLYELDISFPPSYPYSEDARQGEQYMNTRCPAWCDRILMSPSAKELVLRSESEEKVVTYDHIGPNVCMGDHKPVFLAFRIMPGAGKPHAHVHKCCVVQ
UniProt P30939: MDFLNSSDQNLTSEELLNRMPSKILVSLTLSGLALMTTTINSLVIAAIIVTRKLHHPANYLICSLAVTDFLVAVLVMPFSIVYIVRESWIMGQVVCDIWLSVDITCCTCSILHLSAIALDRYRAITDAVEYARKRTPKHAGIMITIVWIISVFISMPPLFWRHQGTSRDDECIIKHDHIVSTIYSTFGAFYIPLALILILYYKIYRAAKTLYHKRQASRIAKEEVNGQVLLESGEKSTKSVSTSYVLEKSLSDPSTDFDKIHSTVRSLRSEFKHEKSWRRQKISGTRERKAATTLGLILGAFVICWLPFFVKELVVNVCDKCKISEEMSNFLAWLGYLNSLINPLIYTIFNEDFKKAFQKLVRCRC
UniProt P50213: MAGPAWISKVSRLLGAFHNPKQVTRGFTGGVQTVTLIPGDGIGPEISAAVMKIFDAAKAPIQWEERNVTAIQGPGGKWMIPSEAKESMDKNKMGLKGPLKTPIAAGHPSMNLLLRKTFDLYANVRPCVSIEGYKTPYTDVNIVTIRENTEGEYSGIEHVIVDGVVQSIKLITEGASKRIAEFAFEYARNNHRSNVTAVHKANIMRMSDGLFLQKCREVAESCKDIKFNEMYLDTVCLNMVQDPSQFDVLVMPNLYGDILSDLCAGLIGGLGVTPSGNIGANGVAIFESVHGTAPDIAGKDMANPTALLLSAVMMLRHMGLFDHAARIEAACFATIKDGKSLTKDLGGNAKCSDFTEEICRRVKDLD
UniProt Q14773: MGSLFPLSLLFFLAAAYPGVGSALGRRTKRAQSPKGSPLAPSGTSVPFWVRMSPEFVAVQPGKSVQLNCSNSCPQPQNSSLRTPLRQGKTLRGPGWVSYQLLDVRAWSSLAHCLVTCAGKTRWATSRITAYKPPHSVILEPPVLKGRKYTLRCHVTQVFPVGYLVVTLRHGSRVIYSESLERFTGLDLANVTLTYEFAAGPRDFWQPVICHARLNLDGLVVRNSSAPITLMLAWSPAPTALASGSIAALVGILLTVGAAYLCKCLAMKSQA
UniProt Q9NRY2: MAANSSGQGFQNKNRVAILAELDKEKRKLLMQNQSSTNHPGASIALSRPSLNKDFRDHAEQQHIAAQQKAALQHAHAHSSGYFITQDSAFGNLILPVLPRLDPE
UniProt Q16666: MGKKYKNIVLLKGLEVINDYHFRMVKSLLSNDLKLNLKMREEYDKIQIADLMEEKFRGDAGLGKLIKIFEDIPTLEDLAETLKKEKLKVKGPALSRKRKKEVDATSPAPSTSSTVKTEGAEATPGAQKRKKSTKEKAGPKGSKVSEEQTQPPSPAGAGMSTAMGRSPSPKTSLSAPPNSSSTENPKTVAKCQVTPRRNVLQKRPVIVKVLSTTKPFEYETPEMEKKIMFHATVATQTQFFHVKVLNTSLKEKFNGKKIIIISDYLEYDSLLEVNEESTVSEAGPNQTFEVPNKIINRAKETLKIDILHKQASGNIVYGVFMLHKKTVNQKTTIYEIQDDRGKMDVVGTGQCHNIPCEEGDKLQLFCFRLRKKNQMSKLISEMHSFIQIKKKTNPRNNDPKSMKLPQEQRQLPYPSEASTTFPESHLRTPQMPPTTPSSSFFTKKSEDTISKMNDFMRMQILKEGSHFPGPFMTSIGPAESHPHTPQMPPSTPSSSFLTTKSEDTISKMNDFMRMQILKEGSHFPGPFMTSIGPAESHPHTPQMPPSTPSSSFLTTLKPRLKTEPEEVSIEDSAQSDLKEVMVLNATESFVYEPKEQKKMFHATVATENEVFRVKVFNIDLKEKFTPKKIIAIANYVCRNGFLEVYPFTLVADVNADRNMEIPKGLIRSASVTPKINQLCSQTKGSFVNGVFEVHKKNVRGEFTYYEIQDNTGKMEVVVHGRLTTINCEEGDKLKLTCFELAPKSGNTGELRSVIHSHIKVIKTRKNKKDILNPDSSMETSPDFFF
UniProt P22304: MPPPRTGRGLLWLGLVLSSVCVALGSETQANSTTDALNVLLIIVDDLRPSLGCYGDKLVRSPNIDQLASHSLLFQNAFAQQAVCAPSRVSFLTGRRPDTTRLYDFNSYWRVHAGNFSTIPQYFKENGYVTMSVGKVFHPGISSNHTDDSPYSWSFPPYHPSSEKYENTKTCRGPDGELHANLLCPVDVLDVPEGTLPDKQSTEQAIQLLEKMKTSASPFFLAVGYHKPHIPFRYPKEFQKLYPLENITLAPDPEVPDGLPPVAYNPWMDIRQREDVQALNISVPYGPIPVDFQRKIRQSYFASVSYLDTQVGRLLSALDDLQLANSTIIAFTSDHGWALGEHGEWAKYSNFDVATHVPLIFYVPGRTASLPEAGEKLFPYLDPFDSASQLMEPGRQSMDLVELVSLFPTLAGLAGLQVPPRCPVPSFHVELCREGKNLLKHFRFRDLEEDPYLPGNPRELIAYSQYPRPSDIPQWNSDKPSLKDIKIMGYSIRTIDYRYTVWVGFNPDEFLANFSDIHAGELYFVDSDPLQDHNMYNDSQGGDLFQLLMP
UniProt Q96D96: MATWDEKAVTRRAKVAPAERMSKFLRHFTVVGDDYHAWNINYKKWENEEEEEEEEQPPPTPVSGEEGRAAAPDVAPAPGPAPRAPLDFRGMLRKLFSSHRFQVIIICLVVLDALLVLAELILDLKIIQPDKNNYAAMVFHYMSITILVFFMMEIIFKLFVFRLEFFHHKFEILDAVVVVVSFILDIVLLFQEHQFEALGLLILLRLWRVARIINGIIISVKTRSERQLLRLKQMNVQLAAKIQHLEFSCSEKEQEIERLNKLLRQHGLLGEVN
UniProt Q9H7X7: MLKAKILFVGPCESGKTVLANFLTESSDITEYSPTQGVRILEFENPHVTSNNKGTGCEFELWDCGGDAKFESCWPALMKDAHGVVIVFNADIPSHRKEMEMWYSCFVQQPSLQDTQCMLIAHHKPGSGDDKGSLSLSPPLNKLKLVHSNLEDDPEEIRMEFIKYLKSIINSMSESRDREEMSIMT
UniProt Q92835: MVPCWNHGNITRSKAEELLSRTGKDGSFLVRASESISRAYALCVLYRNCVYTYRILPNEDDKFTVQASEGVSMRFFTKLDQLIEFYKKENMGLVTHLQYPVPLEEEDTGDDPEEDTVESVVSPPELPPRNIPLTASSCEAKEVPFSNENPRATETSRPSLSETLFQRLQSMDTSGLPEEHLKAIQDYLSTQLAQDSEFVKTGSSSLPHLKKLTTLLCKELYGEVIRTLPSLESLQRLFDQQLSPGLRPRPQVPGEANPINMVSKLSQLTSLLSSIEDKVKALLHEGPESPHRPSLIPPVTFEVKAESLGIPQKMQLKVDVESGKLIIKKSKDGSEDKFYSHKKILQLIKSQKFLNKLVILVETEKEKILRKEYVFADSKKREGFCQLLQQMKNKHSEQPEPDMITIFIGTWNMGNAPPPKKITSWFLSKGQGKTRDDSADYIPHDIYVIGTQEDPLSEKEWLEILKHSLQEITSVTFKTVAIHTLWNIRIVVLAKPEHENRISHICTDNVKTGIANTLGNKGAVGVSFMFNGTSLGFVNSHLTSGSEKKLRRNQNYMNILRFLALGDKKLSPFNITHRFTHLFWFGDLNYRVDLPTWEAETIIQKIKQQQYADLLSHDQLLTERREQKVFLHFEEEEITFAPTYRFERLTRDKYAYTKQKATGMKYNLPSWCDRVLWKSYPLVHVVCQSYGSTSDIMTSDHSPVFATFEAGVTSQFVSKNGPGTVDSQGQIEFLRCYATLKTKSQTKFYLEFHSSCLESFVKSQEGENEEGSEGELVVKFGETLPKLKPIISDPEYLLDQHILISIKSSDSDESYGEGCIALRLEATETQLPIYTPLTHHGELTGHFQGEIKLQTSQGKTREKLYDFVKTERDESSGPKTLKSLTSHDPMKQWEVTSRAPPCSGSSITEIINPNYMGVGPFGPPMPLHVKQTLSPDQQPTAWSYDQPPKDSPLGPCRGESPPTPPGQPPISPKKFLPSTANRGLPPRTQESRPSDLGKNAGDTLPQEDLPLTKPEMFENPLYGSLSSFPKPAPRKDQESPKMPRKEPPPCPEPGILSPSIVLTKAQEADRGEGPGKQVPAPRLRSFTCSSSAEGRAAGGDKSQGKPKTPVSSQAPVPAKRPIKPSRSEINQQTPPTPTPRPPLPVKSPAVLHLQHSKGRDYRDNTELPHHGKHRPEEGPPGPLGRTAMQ
UniProt Q9C086, whole entry, looked up: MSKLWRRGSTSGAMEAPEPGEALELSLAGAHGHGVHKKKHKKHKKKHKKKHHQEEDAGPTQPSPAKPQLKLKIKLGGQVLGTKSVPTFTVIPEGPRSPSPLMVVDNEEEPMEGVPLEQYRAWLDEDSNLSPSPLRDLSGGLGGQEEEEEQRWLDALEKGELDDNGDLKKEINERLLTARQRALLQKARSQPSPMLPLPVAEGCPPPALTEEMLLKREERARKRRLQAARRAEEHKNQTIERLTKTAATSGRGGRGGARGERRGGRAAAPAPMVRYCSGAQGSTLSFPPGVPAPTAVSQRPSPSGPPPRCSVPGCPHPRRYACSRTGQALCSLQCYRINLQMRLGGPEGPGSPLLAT

The other results are listed elsewhere or left out.

Compound in the first assay: NCC(=O)Nc1ccc(-n2nc(C(F)(F)F)cc2-c2ccc3c(ccc4ccccc43)c2)cc1
As to the kind of experiment: log2 fold change, soluble protein after heating vs DMSO (PISA); higher = thermal stabilisation; K562 lysate, 10 uM; active = over 0.2 and 3.5 SD of the protein, either way, in both replicates (recomputed). In a few lines: (§1)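 Following dounce homogenisation of K562 pellets in PBS pH 7.4 with 1 mM MgCl2, crude extract at 1 mg/mL protein was incubated for 30 min with 10 μM compound. Aliquots were then heated for 3 min over 48°C-58°C and pooled, NP-40 was added to 0.5% at 4°C, and soluble protein was recovered as the supernatant at 21,000xg for 90 min. Channel-sum-equalised TMTpro 16plex LC-MS/MS quantified this protein. Each value, from duplicates, is a log-two fold change in thermal stability relative to solvent controls.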
Consider IGSF1 isoform 4 (UniProt Q8N6C5), for which the log2 fold change is inactive: -0.098.
On the same count and under the same terms, the result for IGLL5 (UniProt B9A064) reads inactive: -0.302; that for INPP5A (UniProt Q14642), inactive: -0.183.
The same measure, in the same setting: for HTR1F (UniProt P30939) the value was inactive: 0.071; for HYDIN (UniProt Q4G0P3), inactive: 0.028.
Take IDH3A isoform 2 (UniProt P50213): the log2 fold change is inactive: 0.043.
On the same count and under the same terms, the result for ICAM4 isoform 3 (UniProt Q14773) reads inactive: 0.147; that for INIP (UniProt Q9NRY2), inactive: -0.134.

Compound in another assay: O=C(CCCCCCC(=O)Nc1ccccc1)NO [vorinostat]
Described as above. The gist of the method:
as §1
As to IFI16 (UniProt Q16666), the log2 fold change was inactive: -0.095.
Same read-out and setting: for HYOU1, A0A494C039 the value was inactive: 0.316; for IDS (UniProt P22304), inactive: 0.237.
For the target HVCN1 (UniProt Q96D96), the log2 fold change was inactive: 0.143.
Still for that read-out and setting: the result for IFT22 (UniProt Q9H7X7) reads inactive: 0.003; that for IGLL5 (UniProt B9A064), inactive: 0.008.
As to INPP5A (UniProt Q14642), the log2 fold change is inactive: -0.164.
On to INPP5D (UniProt Q92835), for which the log2 fold change was inactive: -0.486.
Same read-out and setting: for IGHV3-72, A0A4W8ZXM2 the value was inactive: 0.071; for ICAM4 isoform 3 (UniProt Q14773), inactive: 0.112; for INO80B (UniProt Q9C086), inactive: -0.112.
Still for that read-out and setting: for INIP (UniProt Q9NRY2) the value was inactive: 0.362.

Compound in a further assay: O=C(O)c1ccc2c(c1)nc(Nc1cccc(Cl)c1)c1ccncc12 [silmitasertib]
Described as above. The gist of the method: as §1
In the case of IFI16 (UniProt Q16666), the log2 fold change was inactive: 0.07.
On the same count and under the same terms, for HYOU1, A0A494C039 the value was inactive: 0.177; for IDS (UniProt P22304), inactive: -0.144; for HVCN1 (UniProt Q96D96), inactive: 0.195.
On the same count and under the same terms, the result for IFT22 (UniProt Q9H7X7) reads inactive: 0.042; that for IGLL5 (UniProt B9A064), inactive: -0.077.
Same read-out and setting: the result for INPP5A (UniProt Q14642) reads inactive: -0.002; that for INPP5D (UniProt Q92835), inactive: -0.195.
IGHV3-72, A0A4W8ZXM2: the log2 fold change is inactive: 0.219.
Same read-out and setting: the result for ICAM4 isoform 3 (UniProt Q14773) reads inactive: 0.042; that for INO80B (UniProt Q9C086), inactive: 0.057.
For INIP (UniProt Q9NRY2), the log2 fold change was inactive: 0.063.
